According to PMC1184076:
Results are given in words; binding and its absence hold for the method and conditions named. Where a sequence is shown, tags or fusion partners need not be part of it.

Target: T1, GST-c-Jun, P05412
T1 chain: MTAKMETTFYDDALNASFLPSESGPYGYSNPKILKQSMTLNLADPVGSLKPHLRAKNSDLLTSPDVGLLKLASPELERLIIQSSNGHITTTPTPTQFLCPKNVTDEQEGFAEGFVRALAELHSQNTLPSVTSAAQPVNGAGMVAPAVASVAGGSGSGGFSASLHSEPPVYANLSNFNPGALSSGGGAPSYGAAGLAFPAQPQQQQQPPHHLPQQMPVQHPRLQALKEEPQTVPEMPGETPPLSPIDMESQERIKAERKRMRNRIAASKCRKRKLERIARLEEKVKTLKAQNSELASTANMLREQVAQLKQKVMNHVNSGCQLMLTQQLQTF
Test: pull-down; purified GST-p53 (or GST-c-Jun) incubated with purified His-IκBα in IP buffer (25 mM Hepes pH 7.5, 75 mM KCl, 2.5 mM MgCl2, 0.1 mM EDTA, 0.15% NP-40, 1 mM DTT); glutathione Sepharose beads; autoradiography of 32P-IκBα or Western blot for IκBα; both purified
Conditions: remark: other sources report otherwise

- binding: no binding
B1: [32P]-labeled 6xHis-tagged IκBα (His-IκBα), phosphorylated in vitro by p90rsk, P25963 1-317 (protein)
chain: MFQAAERPQEWAMEGPRDGLKKERLLDDRHDSGLDSMKDEEYEQMVKELQEIRLEPQEVPRGSEPWKQQLTEDGDSFLHLAIIHEEKALTMEVIRQVKGDLAFLNFQNNLQQTPLHLAVITNQPEIAEALLGAGCDPELRDFRGNTPLHLACEQGCLASVGVLTQSCTTPHLHSILKATNYNGHTCLHLASIHGYLGIVELLVSLGADVNAQEPCNGRTALHLAVDLQNPDLVSLLLKCGADVNRVTYQGYSPYQLTWGRPSTRIQQQLGQLTLENLQMLPESEDEESYDTESEFTEFTEDELPYDDCVFGGQRLTL
modifications: here or on the partner: 32P-phosphate put on in vitro by p90rsk; site not stated
